Our source for the binding values is paper PMC3024417.

Chains of the proteins cited; added tags and fusions are not shown.
UniProt Q05397: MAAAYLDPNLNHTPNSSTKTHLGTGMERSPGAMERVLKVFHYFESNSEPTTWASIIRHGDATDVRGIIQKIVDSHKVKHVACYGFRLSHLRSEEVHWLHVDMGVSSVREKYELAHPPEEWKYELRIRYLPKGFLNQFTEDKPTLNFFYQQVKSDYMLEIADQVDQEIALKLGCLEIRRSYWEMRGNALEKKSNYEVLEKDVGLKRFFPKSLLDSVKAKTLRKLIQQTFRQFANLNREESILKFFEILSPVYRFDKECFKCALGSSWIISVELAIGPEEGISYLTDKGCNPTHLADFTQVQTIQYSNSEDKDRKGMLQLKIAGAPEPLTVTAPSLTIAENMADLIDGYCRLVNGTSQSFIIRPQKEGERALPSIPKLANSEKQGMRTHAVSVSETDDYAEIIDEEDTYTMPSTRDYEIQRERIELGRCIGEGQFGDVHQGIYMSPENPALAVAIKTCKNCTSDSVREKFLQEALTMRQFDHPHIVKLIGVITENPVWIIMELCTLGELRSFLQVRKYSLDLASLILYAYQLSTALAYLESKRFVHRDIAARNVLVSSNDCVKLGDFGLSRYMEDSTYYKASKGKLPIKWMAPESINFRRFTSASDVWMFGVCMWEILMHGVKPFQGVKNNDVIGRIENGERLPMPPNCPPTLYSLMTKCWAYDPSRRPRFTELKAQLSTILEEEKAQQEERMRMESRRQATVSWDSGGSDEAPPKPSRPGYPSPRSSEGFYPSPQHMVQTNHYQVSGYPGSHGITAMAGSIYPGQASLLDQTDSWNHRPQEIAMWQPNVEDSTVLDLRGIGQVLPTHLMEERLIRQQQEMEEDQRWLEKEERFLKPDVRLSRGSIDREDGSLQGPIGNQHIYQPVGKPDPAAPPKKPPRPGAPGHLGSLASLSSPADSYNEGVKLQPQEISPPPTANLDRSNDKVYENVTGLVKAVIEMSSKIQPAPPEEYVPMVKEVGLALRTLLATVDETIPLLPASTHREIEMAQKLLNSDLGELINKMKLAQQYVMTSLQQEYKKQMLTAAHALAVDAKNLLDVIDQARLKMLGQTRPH
UniProt P28482: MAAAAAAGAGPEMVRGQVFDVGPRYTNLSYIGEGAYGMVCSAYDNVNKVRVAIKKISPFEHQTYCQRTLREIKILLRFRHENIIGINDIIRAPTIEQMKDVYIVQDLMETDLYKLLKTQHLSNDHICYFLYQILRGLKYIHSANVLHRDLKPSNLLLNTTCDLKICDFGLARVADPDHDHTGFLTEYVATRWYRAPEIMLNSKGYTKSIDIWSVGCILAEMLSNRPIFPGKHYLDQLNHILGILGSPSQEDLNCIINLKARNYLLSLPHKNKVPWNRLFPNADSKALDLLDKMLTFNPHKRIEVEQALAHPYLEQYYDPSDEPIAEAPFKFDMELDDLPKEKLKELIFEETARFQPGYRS
UniProt P27361: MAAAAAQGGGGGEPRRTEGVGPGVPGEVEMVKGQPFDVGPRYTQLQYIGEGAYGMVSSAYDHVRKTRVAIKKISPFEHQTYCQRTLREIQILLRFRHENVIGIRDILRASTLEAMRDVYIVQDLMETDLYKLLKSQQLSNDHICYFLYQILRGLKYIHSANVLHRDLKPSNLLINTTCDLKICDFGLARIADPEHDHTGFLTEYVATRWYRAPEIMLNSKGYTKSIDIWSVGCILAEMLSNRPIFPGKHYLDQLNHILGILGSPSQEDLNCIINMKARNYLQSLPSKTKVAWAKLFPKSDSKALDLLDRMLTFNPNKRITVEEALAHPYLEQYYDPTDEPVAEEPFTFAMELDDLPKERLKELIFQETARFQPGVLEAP

No constants are given. Whether binding was seen depends on the method and setting. In cells and extracts the contact can be indirect.

For the assay, the target named is T1, p120-catenin (human (endogenous in A431)) (UniProt O60716).
T1 sequence: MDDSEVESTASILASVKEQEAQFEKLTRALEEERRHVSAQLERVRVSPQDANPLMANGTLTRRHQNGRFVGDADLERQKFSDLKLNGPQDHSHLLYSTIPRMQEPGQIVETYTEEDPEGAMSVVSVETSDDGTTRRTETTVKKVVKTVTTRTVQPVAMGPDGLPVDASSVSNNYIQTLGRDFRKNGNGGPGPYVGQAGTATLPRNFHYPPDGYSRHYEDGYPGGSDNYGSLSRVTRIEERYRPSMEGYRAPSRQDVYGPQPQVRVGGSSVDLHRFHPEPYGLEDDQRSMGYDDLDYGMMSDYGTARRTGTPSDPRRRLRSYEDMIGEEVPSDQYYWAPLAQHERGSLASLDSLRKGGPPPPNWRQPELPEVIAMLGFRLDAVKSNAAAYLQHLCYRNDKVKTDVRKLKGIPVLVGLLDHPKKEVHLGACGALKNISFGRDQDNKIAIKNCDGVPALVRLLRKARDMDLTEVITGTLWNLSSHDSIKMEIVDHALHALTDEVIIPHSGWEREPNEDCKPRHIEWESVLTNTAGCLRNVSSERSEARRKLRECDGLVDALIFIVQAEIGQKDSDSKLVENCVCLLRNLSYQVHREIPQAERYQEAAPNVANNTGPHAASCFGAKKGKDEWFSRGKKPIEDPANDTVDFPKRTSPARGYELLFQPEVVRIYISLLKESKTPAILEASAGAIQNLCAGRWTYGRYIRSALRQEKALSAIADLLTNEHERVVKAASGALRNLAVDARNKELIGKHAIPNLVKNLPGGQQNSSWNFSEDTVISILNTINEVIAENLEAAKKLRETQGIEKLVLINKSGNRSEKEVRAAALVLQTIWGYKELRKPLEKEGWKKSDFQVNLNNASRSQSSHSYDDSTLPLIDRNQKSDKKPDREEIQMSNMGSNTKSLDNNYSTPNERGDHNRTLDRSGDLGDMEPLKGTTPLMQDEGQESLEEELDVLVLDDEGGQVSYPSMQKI
Nature of the assay: cross-linking + co-IP; A431 cells crosslinked in the cell with 0.5 mM DSP or 0.5 mM DTME (30 min, room temperature, PBS pH 7.4), lysed in RIPA buffer; p120 immunoprecipitated with mAb 15D2, eluted in reducing LSB; Western blot.
With “Focal Adhesion Kinase (from UniProt Q05397 1-1052)”, the binding entry was “no binding”.

With p42 MAPK (from UniProt P28482 1-360), the binding entry is “no binding”.

As to p44 MAPK (from UniProt P27361 1-379), the binding entry is “no binding”.
